Our source for the IC50 values is ChEMBL document CHEMBL5576107, “Wajeepeptin, a Cytotoxic and Antitrypanosomal Cyclic Depsipeptide from a Marine Moorena sp. Cyanobacterium” (J Nat Prod, 2024).

In the test the test system is HeLa. Description: Antiproliferative activity against human HeLa cells measured after 72 hrs by MTT assay. The format is functional, cell-based.

The IC50 is the concentration at which inhibition is half-maximal. A low value points to inhibition by little substance. With `COc1cccc2c1C(=O)c1c(O)c3c(c(O)c1C2=O)C[C@@](O)(C(=O)CO)C[C@@H]3O[C@H]1C[C@H](N)[C@H](O)[C@H](C)O1` [DOXORUBICIN], the midpoint of inhibition, the IC50, lay at 900 nM.
